# Screening data, single-dose tests

Protein sequences, listed by entry. Tags and fused reporters are not part of them.
UniProt I6X8D2, whole entry: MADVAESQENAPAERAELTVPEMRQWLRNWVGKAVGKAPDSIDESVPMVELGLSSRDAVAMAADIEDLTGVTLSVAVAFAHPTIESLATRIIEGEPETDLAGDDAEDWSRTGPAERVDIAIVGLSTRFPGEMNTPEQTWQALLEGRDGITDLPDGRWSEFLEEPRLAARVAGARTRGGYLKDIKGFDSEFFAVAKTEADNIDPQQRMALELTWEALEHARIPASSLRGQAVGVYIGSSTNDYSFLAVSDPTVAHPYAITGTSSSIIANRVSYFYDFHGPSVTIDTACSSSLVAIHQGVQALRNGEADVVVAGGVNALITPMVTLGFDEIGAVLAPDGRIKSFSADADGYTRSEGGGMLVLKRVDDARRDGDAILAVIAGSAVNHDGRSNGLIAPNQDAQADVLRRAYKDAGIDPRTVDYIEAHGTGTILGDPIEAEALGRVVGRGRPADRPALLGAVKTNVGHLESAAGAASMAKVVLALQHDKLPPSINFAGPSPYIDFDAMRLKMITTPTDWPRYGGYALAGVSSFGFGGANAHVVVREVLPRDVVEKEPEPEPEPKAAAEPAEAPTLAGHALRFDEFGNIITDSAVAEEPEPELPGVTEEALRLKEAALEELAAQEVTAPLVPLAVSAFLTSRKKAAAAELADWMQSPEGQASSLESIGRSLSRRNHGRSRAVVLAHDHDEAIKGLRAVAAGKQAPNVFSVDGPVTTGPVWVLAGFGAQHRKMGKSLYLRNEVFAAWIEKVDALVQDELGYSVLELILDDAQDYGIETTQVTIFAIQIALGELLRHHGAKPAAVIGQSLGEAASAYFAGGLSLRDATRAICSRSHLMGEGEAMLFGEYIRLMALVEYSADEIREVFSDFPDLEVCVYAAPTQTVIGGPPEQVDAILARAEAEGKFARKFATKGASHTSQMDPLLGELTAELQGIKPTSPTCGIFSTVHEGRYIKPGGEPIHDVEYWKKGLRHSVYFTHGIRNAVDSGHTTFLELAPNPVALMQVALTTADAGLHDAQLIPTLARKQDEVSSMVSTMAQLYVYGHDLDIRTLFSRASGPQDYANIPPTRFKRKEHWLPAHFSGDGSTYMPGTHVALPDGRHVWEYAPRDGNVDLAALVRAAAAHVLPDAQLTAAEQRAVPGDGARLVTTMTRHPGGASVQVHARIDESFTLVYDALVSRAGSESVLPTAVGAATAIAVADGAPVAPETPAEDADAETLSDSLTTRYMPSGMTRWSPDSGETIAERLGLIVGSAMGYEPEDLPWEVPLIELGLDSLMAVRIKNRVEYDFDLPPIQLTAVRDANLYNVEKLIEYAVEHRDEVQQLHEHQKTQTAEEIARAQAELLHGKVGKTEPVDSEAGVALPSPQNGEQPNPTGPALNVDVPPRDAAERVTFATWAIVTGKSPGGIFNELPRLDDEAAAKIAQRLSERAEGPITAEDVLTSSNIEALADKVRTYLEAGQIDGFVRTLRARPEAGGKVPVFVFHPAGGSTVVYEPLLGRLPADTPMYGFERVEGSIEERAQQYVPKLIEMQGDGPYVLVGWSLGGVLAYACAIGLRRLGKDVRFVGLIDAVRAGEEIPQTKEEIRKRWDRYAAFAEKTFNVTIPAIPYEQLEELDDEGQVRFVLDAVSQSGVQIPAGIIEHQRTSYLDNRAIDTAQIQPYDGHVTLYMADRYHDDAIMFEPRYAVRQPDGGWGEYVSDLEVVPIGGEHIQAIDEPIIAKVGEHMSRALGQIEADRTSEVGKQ

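Polyketide synthase Pks13, Mycobacterium tuberculosis (UniProt I6X8D2). Enzyme assay of the thioesterase domain of polyketide synthase 13; the read-out is not stated. Concentration: 30 µM. Higher reads as stronger inhibition (inferred from which compounds were picked for retests). Size under these conditions: about 67,000 compounds, about 300 of them at 50% or above in at least one test.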

Each number is a percent effect as filed.
The controls that fix the scale are not given in the record; negative values are as filed.
The compounds are a random part of those screened.

* Cn1nc(C(=O)N2CCCC2)c2c1CN(CC1CCOCC1)C2 : -14.82%
* COCCN(Cc1ccccn1)C(=O)CC1OCCc2sccc21 (stereo not drawn) : -33.39%
* CCn1cnnc1C1CCN(C(=O)CC(C)n2cccc2)CC1 (stereo not drawn) : 1.385%
* COc1ccc(C2=C(C)C(N3CCc4ccccc43)=NS2(=O)=O)cc1 : -7.397%
* COc1ccc(CCNC(=O)N2CCCC(c3nncn3C)C2)cc1 (stereo not drawn) : -4.924%
* O=C1CC(c2ccc3c(c2)OCO3)c2snc(C(=O)O)c2N1 (stereo not drawn) : -2.901%
* COc1cccc(CC(=O)N2CC[C@@H]3CN(C)S(=O)(=O)[C@@H]3CC2)c1 : -2.044%
* O=C(c1ccon1)N1CCc2ncnc(NCc3ccccn3)c2CC1 : 3.617%
* CC(C)N1CC[C@H](c2nnc(Cc3c[nH]c4ccccc34)o2)C1 : -22.74%
* Cc1nn(C)cc1NC(=O)CC1CCN(C(=O)Cc2ccccc2)CC1 : -15.86%
* CC(NC(=O)NCCOc1ccc(F)c(F)c1)c1nncn1C (stereo not drawn) : -0.2239%
* CC(=O)Nc1ccc(CCC2(NC(=O)C3CCCO3)CCCCC2)cn1 (stereo not drawn) : 2.447%
* CN1CCC(Cc2cc(Nc3ncccn3)ncn2)CC1 : -37.51%
* CCC(=O)N1CCC(c2nc(N3CCOCC3)ncc2S(C)(=O)=O)CC1 : -6.923%
* CC(C)OCCCNC(=O)CS(=O)(=O)Cc1ccc(Cl)cc1 : -25.91%
* CN1CCN(C(=O)c2csnn2)c2ccccc21 : -2.391%
* Cc1cc(C)n(Cc2cccc(C(=O)NCCSCC(C)(C)O)c2)n1 : -10.49%
* COCc1cncc2c1CCN(Cc1cnn(C)c1)C2 : 11.84%
* NC(=O)C1CCCN1C(=O)c1cccc2c1OCO2 (stereo not drawn) : -9.812%
* c1coc(COCc2ncn3c2CN(Cc2cccs2)CCC3)c1 : -21.67%
* COc1ccccc1CN(C)C(=O)NCc1c(C)cc(C)[nH]c1=O : -20.43%
* CC(C)c1cc(N2CCC(C(C)N3CCCC3)CC2)n2nccc2n1 (stereo not drawn) : -14.69%
* CCc1noc(C(C)N2CCN(c3ccc(C#N)cc3F)CC2)n1 (stereo not drawn) : -33.08%
* Cn1cnc2c1CCN(Cc1cccc(C(N)=O)c1)C2 : -4.895%
* CC(C)N1CCc2c(c(COc3cccnc3)nn2CC2CC2)C1 : -10.29%
* Cc1cc(C)n(C2CN(CC(O)c3ccc4c(c3)OCO4)C2)n1 (stereo not drawn) : -10.59%
* CN1CCCC1CNC(=O)CCCOc1cccc(Br)c1 (stereo not drawn) : -19.77%
* O=C(CC1CC1)N1C[C@H]2CN(CC3CC3)C(=O)[C@H]2C1 : -22.06%
* N#Cc1cccnc1N1CCN(C(=O)c2cccs2)CC1 : 7.88%
* COc1ccc2c(c1)c(-c1nc(N(C)C)ncc1CN)cn2C : -8.953%
* CC(C)(C)c1nnc(CN2CCN(C(=O)N3CCCCC3)CC2)o1 : -47.15%
* O=C1CN(C(=O)[C@H]2CC[C@]3(CC2)CNC(=O)c2ccccc2O3)CCN1 : -6.963%
* CC(C)(O)CSCCNC(=O)c1ccc(F)cc1Cl : -22.95%
* CCc1c(C)nn(CCN2CC3(CCOC3)CCC2=O)c1C (stereo not drawn) : -4.695%
* CC(C)c1nnc2n1CCN(CCS(=O)(=O)c1ccccc1)C2 : -5.114%
* O=C(c1ccc2cc[nH]c2c1)N1CCC(Nc2cccnn2)CC1 : -14.45%
* CCSc1ccccc1C(=O)N1CCC(S(=O)(=O)c2nncn2C)CC1 : -24.05%
* CC(C)N1CCC2(CC1)CC(=O)N(Cc1cc(F)cc(F)c1)C2 : -11.86%
* CC(C)NC(=O)c1ccc2c(c1)nc1n2CCN(Cc2ccccc2)C1 : -4.241%
* CN(C)CCN(C)C(=O)NC1CCC(Oc2ccccc2C#N)CC1 (stereo not drawn) : -33%
* CC(=O)N1CCC(N2CCOC[C@H]2c2nc(-c3ccc(Cl)s3)c[nH]2)CC1 : -13.18%
* O=C(NCc1ccccn1)c1cnc(C2CCCN2)cn1 (stereo not drawn) : -7.503%
* COC(=O)c1ccc(CN2CCC(c3noc(C)n3)CC2)s1 : -13.63%
* CC(C)N1CCO[C@@H]2CN(S(=O)(=O)c3cccs3)CC[C@@H]2C1 : -16.31%
* O=S(=O)(c1cccc(F)c1)N1C[C@@H]2CC[C@H](C1)N(Cc1ccccc1)C2 : -10.36%
* Cn1cc(CN2CCC(c3cc(CCO)[nH]n3)C2)cn1 (stereo not drawn) : 6.194%
* CCOc1ccc(NC(=O)N(CCC#N)Cc2ccccn2)cc1F : 0.347%
* Fc1cccc(N2C[C@H]3CCN(c4cccnc4)C[C@H]3C2)c1 : 21.67%
* CN1C[C@@H]2CN(C(=O)NCc3ccccc3)CCC[C@]2(C(=O)O)C1 : -22.76%
* CC(=O)N1CCN([C@@H]2CN(C(=O)c3ccccc3)C[C@H]2O)CC1 : 4.207%
* Cc1ccoc1-c1nnc(CN2CCCC(Cn3cncn3)C2)o1 (stereo not drawn) : -6.777%
* O=C1CO[C@H]2CN(Cc3cccnc3)C[C@H]2N1 : 0.6233%
* Cc1cc(N)nc(SC2CCN(c3ccccc3)C2=O)n1 (stereo not drawn) : 0.2574%
* CN(CC(=O)N1CCC(COc2ccccc2)CC1)c1cnccn1 : 5.509%
* Cc1ccc(CC(NC(=O)Cn2cnnn2)c2ccccn2)cc1 (stereo not drawn) : -6.084%
* Cc1ccc(OCCC(=O)NC2CCc3nccn3C2)cc1 (stereo not drawn) : -33.89%

Some entries from above, unchanged:

| SMILES | percent effect |
|---|---|
| `CN(CC(=O)N1CCC(COc2ccccc2)CC1)c1cnccn1` | 5.509 |
| `COC(=O)c1ccc(CN2CCC(c3noc(C)n3)CC2)s1` | -13.63 |
| `O=C(CC1CC1)N1C[C@H]2CN(CC3CC3)C(=O)[C@H]2C1` | -22.06 |
| `O=C(c1ccc2cc[nH]c2c1)N1CCC(Nc2cccnn2)CC1` | -14.45 |
| `CN1CCCC1CNC(=O)CCCOc1cccc(Br)c1` (stereo not drawn) | -19.77 |
| `NC(=O)C1CCCN1C(=O)c1cccc2c1OCO2` (stereo not drawn) | -9.812 |

Measurements from “University of Dundee, Small-Polar-MMV Screening Library” (2021), ChEMBL document CHEMBL3988442.